The values below come from publication PMC5666082.

No constants are given. Whether binding was seen depends on the method and setting. Some binding calls cover weakened binding; strength is not graded here. Where a sequence is shown, tags or fusion partners need not be part of it.

In assay [1] the target is T1, Su(Hw) C-terminal region, aa 672-892 (yeast two-hybrid fusion) (Drosophila) (UniProt P08970).
T1 sequence: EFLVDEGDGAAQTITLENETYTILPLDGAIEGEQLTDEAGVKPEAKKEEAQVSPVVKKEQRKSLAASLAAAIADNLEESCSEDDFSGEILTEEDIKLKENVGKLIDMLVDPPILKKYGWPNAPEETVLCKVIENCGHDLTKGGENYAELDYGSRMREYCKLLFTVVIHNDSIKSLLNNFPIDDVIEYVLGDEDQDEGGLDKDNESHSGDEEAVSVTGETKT
The experiment in a line: two-hybrid; yeast strain pJ694A, Clontech plasmids; GAL4 activation and DNA-binding domains fused to the N- or C-ends of the test proteins; growth on media without tryptophan, leucine, histidine and adenine compared after 2-3 days at 30°C.

Assay [2] concerns the target T2, GST-Su(Hw) N-terminal domain (aa 1-238) (Drosophila) (UniProt P08970).
T2 sequence: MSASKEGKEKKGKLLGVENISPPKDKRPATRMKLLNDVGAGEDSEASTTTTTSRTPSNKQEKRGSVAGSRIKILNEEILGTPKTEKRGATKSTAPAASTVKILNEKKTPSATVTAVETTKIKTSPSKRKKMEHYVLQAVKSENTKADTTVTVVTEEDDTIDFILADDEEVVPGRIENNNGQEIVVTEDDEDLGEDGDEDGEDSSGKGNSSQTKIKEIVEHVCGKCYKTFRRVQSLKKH
The experiment in a line: pull-down; GST fusion on Glutathione Sepharose 4B beads in 20 mM Hepes-KOH pH 7.6, 200 mM KCl, 2.5 mM MgCl2, 10% glycerol, 0.05% NP40; blocked with 5% BSA; incubated with 6His-tagged protein for 3 h; washed with 400 mM NaCl, 0.2% NP40; blot with anti-His; both purified.

The target in assay [3] is T3, GST-Mod(mdg4)-67.2 (Drosophila) (UniProt Q86B87).
T3 sequence: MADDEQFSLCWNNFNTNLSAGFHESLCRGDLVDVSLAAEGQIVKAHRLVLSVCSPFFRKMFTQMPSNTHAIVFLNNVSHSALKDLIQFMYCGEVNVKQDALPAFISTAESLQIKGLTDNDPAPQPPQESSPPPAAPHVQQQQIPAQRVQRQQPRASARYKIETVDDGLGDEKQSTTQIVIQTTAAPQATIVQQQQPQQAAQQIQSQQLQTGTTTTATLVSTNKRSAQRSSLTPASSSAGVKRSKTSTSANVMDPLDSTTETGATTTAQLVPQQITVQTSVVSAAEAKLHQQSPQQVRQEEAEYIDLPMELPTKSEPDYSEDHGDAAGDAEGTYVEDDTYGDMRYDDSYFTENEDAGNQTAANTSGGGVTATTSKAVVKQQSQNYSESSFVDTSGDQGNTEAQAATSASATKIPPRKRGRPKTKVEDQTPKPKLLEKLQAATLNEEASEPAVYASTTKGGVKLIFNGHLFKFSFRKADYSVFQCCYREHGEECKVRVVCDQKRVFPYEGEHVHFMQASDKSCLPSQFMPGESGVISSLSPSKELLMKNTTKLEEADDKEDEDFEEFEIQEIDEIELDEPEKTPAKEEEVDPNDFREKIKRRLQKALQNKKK
Described as above.

B1: Mod(mdg4)-67.2 derivative devoid of the C-terminal region (1-568) (yeast two-hybrid fusion) (domain or fragment, UniProt Q86B87 1-568)
chain: MADDEQFSLCWNNFNTNLSAGFHESLCRGDLVDVSLAAEGQIVKAHRLVLSVCSPFFRKMFTQMPSNTHAIVFLNNVSHSALKDLIQFMYCGEVNVKQDALPAFISTAESLQIKGLTDNDPAPQPPQESSPPPAAPHVQQQQIPAQRVQRQQPRASARYKIETVDDGLGDEKQSTTQIVIQTTAAPQATIVQQQQPQQAAQQIQSQQLQTGTTTTATLVSTNKRSAQRSSLTPASSSAGVKRSKTSTSANVMDPLDSTTETGATTTAQLVPQQITVQTSVVSAAEAKLHQQSPQQVRQEEAEYIDLPMELPTKSEPDYSEDHGDAAGDAEGTYVEDDTYGDMRYDDSYFTENEDAGNQTAANTSGGGVTATTSKAVVKQQSQNYSESSFVDTSGDQGNTEAQAATSASATKIPPRKRGRPKTKVEDQTPKPKLLEKLQAATLNEEASEPAVYASTTKGGVKLIFNGHLFKFSFRKADYSVFQCCYREHGEECKVRVVCDQKRVFPYEGEHVHFMQASDKSCLPSQFMPGESGVISSLSPSKELLMKNTTKLEEADDKEDEDFEEFEIQ
Consider B1, for which the binding entry in assay [1] was “no binding”.

B2: His-fusion Mod(mdg4)-67.2 aa 118-277 (domain or fragment, UniProt Q86B87 118-277)
chain: DNDPAPQPPQESSPPPAAPHVQQQQIPAQRVQRQQPRASARYKIETVDDGLGDEKQSTTQIVIQTTAAPQATIVQQQQPQQAAQQIQSQQLQTGTTTTATLVSTNKRSAQRSSLTPASSSAGVKRSKTSTSANVMDPLDSTTETGATTTAQLVPQQITVQ
Turning to B2, the binding result in assay [2] was “binds”.

B3: Mod(mdg4)-67.2 C-terminal region (568-610), Su(Hw)-interacting domain (yeast two-hybrid fusion) (domain or fragment, UniProt Q86B87 568-610)
chain: QEIDEIELDEPEKTPAKEEEVDPNDFREKIKRRLQKALQNKKK
In the case of B3, the binding entry in assay [1] is on record as “binds”.

B4: His-fusion Su(Hw) MID (716-892 region) (domain or fragment, UniProt P08970 716-892)
chain: AKKEEAQVSPVVKKEQRKSLAASLAAAIADNLEESCSEDDFSGEILTEEDIKLKENVGKLIDMLVDPPILKKYGWPNAPEETVLCKVIENCGHDLTKGGENYAELDYGSRMREYCKLLFTVVIHNDSIKSLLNNFPIDDVIEYVLGDEDQDEGGLDKDNESHSGDEEAVSVTGETKT
Turning to B4, the binding entry in assay [3] is recorded as “binds”.
